No constants are given. Whether binding was seen depends on the method and setting. Some results given as binding are weak or reduced against the parent protein; the word gives no strength.
Biological target: cytochrome C (human) (UniProt P99999)
Experiment: immunopurification of cytochrome C from HBL-100 lysates, immunoblot for APAF-1

By UniProt entry, the sequences of proteins in these tests, tags left out. Residues count along the entry.
UniProt P99999, residues 2-105: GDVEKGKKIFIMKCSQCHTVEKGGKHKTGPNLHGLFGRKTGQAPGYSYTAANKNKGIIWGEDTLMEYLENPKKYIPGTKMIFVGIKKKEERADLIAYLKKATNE
UniProt O14727: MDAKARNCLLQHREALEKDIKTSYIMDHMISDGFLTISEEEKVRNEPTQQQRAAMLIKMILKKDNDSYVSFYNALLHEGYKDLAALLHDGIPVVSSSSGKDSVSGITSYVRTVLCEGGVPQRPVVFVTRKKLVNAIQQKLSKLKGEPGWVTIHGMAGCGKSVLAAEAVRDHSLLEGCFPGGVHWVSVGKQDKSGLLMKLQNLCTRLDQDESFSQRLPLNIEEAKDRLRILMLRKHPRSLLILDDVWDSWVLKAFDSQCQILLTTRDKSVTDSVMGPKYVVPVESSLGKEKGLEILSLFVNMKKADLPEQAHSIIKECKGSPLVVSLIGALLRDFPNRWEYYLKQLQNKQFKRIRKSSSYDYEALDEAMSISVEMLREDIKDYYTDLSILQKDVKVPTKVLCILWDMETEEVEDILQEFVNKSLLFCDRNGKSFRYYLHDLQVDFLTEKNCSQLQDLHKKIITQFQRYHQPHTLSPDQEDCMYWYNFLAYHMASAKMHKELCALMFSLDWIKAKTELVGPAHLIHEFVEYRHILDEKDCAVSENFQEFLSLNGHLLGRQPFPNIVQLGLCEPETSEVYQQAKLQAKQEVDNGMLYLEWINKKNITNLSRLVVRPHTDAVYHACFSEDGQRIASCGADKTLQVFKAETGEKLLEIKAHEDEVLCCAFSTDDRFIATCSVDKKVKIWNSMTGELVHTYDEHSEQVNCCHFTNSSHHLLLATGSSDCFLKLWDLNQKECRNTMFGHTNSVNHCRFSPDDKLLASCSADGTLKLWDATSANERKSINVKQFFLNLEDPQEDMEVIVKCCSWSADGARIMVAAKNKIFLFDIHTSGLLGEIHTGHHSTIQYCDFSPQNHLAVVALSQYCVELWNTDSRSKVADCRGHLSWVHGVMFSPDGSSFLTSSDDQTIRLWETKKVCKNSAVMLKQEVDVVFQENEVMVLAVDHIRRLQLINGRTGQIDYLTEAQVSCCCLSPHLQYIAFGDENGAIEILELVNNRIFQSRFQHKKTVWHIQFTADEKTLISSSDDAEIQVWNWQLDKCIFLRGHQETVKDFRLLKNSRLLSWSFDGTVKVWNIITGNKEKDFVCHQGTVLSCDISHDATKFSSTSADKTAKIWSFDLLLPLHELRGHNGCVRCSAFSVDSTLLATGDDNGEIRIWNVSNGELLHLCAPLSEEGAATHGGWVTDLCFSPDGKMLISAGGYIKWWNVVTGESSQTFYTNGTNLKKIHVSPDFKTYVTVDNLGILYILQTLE

- binding: binds
Substance: APAF-1 (from UniProt O14727 1-1248)
